Measurements published in PubChem BioAssay AID540275 (National Center for Advancing Translational Sciences (NCATS), 2011).
Screen size: about 320,000 compounds; about 620 (0.19%) were called active. Inconclusive means that the source gave no clear call. Such entries were picked first, then a sample of the others. Cut-off read from the data, not from the text of the source: active = activation above about 80%; inconclusive = between about 30% and that limit; inactive = weaker than that.

Amino acid sequences for entries named in this document (tags omitted).
UniProt Q8NER1, whole entry, looked up: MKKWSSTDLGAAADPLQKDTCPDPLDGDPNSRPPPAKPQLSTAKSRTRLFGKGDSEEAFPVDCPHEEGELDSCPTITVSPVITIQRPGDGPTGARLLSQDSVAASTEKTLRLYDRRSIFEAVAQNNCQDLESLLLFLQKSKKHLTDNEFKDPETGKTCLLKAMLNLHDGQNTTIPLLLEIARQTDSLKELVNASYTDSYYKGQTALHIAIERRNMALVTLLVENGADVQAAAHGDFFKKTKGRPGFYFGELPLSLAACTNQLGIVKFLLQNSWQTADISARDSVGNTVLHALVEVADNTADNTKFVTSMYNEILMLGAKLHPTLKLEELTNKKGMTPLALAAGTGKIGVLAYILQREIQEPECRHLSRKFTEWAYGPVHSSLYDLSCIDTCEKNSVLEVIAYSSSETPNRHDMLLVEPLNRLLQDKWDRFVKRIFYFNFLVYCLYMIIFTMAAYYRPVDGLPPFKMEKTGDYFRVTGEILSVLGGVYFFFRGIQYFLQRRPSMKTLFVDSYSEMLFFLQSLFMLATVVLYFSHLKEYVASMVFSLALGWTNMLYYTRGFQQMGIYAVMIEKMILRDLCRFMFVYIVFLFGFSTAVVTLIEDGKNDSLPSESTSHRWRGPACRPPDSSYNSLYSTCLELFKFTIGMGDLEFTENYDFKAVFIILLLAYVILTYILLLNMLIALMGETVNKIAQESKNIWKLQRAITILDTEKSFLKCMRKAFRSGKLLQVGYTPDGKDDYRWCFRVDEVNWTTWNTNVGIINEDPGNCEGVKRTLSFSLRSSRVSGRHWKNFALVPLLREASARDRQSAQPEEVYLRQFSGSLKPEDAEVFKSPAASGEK

Each compound was assayed against Transient receptor potential cation channel subfamily V member 1 (Homo sapiens) (UniProt Q8NER1) (assay: HTS Assay for Compounds that Act as Agonists of the Vanilloid Receptor 1). Conditions: TRPV1-expressing cells, Fluo-8 calcium influx, agonist mode; at 8.33 µM, stronger effect = higher value.
Procedure, shortened: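 Cells expressing TRPV1 were dye-loaded with Fluo-8 and read kinetically: 10 s baseline, 3 min after compound (agonist portion), then 2 min after EC20 capsaicin (allosteric enhancer portion). Calcium-bound dye fluorescence at 480/520 nm.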
Note: 0% is about no effect.

SMILES	activation
CC(=O)c1cccc(OCc2cc(C(=O)N3CCSCC3)no2)c1	inconclusive: 42%
CCOC(=O)C1=C(C)NC(C)=C(C(=O)OCC)C1c1sccc1C	inactive: -2.97%
CN(C)S(=O)(=O)c1ccc(NC(=O)/C=C/c2ccccc2Cl)cc1	inconclusive: 50.8%
COc1cc2c(cc1OC)C(c1ccc(-c3ccccc3Cl)o1)=NCC2	inactive: 6.1%
O=C(/C=C/c1cc(Br)ccc1F)Nc1cccnc1	active: 80.1%
Cc1cccc(NC2CCCCC2NS(=O)(=O)c2ccccc2)c1 (configuration not stated)	inconclusive: 34.9%
O=C(Nc1ccc(F)cc1)c1ccc(CSc2ccc(Cl)cc2)o1	inconclusive: 32.2%
COc1cc(/C=C2/C(=N)N3C=CSC3=NC2=O)ccc1OCCCOc1ccccc1C	inactive: -2.33%
O=C(Nc1ccccc1)Nc1ccc(S(=O)(=O)N2CCCCC2)cc1	inconclusive: 52%
Cc1nc(-c2ccccc2)sc1C(=O)Nc1ccccc1F	inconclusive: 54.1%
COc1ccc(CC(=O)Nc2ccc3nc(C)sc3c2)cc1OC	inconclusive: 51.5%
COc1ccc(/C=N/Nc2nc(C(=O)O)cs2)cc1	inactive: 0.0068%
CC1CCC(C(C)C)C(OC(=O)COC(=O)c2cc(O)ccc2N)C1 (configuration not stated)	inconclusive: 64.2%
O=C(NNC(=O)C1[C@H]2CCCC[C@@H]12)NC1CCCCC1 (some centres not stated)	inactive: -5.37%
CCOc1cccc(C(=O)Nc2ccccc2N2CCN(C(=O)C(C)C)CC2)c1	inconclusive: 43.1%
FC(F)(F)c1cc(CCN2C(=S)NC[C@@H]2c2ccccc2)cc(C(F)(F)F)c1	inactive: 2.56%
O=C(Nc1ccc(F)cc1)C1C(c2ccccc2)C1(Cl)Cl (configuration not stated)	inconclusive: 65.4%
CSc1ncc(C(=O)Nc2cccc(Cl)c2)c(C)n1	inconclusive: 33%
CCCc1c(NC(=O)Nc2ccc(F)cc2)cnn1-c1ccccc1	inconclusive: 31.2%
CC12CCC(=O)N1C(C(=O)NNC(=O)c1cccc(Cl)c1)CS2 (configuration not stated)	inactive: -0.665%
Cc1ccc(C(=O)NCCSc2ccc(Cl)cc2)cc1S(=O)(=O)Nc1ccccc1	inactive: 6.91%
CC(=O)NC12CC3CC(C1)CC(C(=O)Nc1nc4ccc(S(C)(=O)=O)cc4s1)(C3)C2	inconclusive: 63.6%
C=CCn1c(=N)n(CC(=O)c2ccc(Cl)cc2)c2ccccc21	inactive: 3.44%
Clc1ccc(/C=N/NC(=Nc2ccccc2)c2ccccn2)c(Cl)c1	inactive: 1.23%

3 compounds from above, ordered by molecular weight, low to high:
SMILES	activation
O=C(/C=C/c1cc(Br)ccc1F)Nc1cccnc1	active: 80.1%
CC(=O)NC12CC3CC(C1)CC(C(=O)Nc1nc4ccc(S(C)(=O)=O)cc4s1)(C3)C2	inconclusive: 63.6%
Cc1ccc(C(=O)NCCSc2ccc(Cl)cc2)cc1S(=O)(=O)Nc1ccccc1	inactive: 6.91%

Later entries:

SMILES	activation
CCOc1ccc(CSCCNC(=S)Nc2ccccc2)cc1	inconclusive: 38.7%
CC(NCc1cccs1)C(=O)Nc1cc(Cl)cc(Cl)c1 (configuration not stated)	inconclusive: 47.4%
CC(C(=O)N1CCN(c2ccccc2)CC1)c1ccc([N+](=O)[O-])cc1 (configuration not stated)	inconclusive: 71.5%
CCC(C)Sc1cccc(-c2nc3cc(C)ccn3c2NCc2ccccc2)c1 (configuration not stated)	active: 93.4%
O=C(NCCOc1ccccc1-c1ccccc1)c1ccco1	inconclusive: 37.2%
CC(=O)c1cccc(NC(=O)c2csc3c2CCCCC3)c1	inconclusive: 61.4%
CC(=O)Nc1cccc(OCCCNC(=O)c2cccc3ccccc23)c1	inconclusive: 38.3%
CCCCN(Cc1ccco1)C(=O)C1CCCN(c2ncnc3c2nc2n3CCCCC2)C1 (configuration not stated)	inconclusive: 71.8%
COc1nc(-c2ccccc2)ccc1-c1noc(COc2ccccc2)n1	inconclusive: 39%
O=C1CCCc2c1cc(-c1ccccc1)n2-c1ccccc1	inconclusive: 38.4%
Cc1cc(-c2nnc(SCc3ccccn3)o2)no1	inactive: 0.746%
O=S(=O)(NC(=S)c1ccccc1)c1ccc(F)cc1	inactive: -0.151%
COc1cc(NC(=O)C2CC(c3cccc(OC)c3OC)=NO2)cc(OC)c1OC (configuration not stated)	inactive: -0.616%
CCOc1ccc(CCNC(=O)COC(=O)CSc2ccc(C)cc2)cc1OCC	inactive: 0.159%
O=C1CC2(CCN(C(=O)COc3ccc(F)cc3)CC2)Oc2ccccc21	inconclusive: 51.8%
O=C(NC(=S)NNC(=O)c1ccccc1O)c1ccccc1	inactive: 2.25%
O=C(Nc1ccc(-n2cnnn2)cc1)c1cccc(S(=O)(=O)N2CCCC2)c1	inconclusive: 36.6%
O=C(CSc1nnc(Cc2ccccc2)o1)c1ccc(F)cc1	inconclusive: 46.1%
Cc1ccccc1CCN1CCCC(CN(C)CC(C)(C)C)C1 (configuration not stated)	inactive: 4.3%
O=C(CCSCc1ccccc1F)NCc1cccs1	inconclusive: 51.8%
CCn1c(C)c(C)c2cc(C(=O)NC3CCCCCC3)ccc21	inconclusive: 68.9%
COc1cccc(C(c2sc3ncnn3c2O)N2CCN(C(=O)c3ccco3)CC2)c1 (configuration not stated)	inactive: -0.956%
CCNC(=S)N/N=C/c1ccc(OCC(=O)Nc2ccc(C)cc2)cc1	inactive: -1.74%
